Experimental data as given in paper PMC10742985.

Protein sequences, listed by entry. Tags and fused reporters are not part of them. Lines headed by an entry give the natural chain unless they say otherwise; changes in a name come on top.
UniProt P13497: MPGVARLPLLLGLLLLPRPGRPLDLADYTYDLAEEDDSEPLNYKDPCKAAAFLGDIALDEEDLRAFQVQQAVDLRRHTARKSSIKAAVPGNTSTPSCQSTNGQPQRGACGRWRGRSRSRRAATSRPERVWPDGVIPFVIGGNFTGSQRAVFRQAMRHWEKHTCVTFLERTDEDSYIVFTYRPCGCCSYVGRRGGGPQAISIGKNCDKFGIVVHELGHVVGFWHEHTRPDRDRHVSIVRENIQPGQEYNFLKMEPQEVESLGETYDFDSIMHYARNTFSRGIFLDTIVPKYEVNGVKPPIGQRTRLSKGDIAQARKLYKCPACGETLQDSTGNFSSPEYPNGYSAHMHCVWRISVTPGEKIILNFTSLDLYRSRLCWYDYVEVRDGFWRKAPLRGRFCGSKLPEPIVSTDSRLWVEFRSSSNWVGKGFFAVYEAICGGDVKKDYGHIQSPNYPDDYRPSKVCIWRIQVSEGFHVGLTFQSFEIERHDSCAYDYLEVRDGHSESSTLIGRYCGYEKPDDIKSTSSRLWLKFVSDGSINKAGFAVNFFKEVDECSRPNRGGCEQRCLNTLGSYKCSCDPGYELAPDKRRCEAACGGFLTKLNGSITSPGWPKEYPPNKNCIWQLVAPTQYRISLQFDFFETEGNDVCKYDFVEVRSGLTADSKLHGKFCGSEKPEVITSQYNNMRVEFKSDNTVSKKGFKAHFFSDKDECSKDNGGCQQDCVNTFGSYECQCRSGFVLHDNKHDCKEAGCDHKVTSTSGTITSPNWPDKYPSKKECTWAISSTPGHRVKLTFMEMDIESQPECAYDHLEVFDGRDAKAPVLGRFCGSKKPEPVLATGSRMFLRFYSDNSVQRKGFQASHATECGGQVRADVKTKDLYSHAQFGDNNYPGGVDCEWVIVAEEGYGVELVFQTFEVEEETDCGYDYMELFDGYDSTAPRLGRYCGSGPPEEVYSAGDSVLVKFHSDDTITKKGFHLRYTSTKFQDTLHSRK

Target: T1, Vitamin D Receptor (VDR) (human (endogenous in papillary thyroid cancer tissue)) (UniProt P11473)
T1 sequence: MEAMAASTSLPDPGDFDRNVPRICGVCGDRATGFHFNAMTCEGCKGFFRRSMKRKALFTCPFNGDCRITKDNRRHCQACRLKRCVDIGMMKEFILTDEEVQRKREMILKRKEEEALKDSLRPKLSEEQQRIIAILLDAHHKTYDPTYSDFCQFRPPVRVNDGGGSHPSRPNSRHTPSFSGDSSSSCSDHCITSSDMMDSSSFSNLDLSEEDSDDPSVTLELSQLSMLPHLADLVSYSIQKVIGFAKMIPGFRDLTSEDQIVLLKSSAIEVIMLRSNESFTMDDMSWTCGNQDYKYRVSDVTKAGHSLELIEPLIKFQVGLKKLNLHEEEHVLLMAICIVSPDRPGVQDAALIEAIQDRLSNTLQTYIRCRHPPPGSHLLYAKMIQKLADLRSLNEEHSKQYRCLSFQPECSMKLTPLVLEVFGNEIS
Assay: co-IP; reverse immunoprecipitation with VDR antibody (rat, Invitrogen) as bait from precleared RIPA lysates of fresh papillary thyroid cancer tissue, Protein A/G magnetic beads, 4 °C; supernatant and beads blotted

- binding: no binding
Substance: bone morphogenetic protein-1 (BMP-1) (from UniProt P13497)

These are yes or no findings as the source states them, for the method shown. Binding seen in cells or lysates may run through a third protein.
